Data published in PubChem BioAssay AID445 (National Center for Advancing Translational Sciences (NCATS), 2006).
The other results are listed elsewhere or left out. The main result of the screen is listed elsewhere. These columns were measured beside it and carry no call. Most of these compounds were active or inconclusive in the main read-out, so they are no random draw. Potencies come from curve fits of mixed quality, noted in brackets.

Experiment: IkB Signaling
Conditions: ABC-DLBCL IkBa-CBG/CBR dual luciferase ratio (green luciferase fused to IkBa over red control in OCI-Ly3 lymphoma cells), 4 h
Summary of the method: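 Curves were fitted separately to fusion (green), unfused (red) and ratio luminescence, then classed by r2, magnitude and activity. Cells: OCI-Ly3, 4 h compound plus doxycycline at 37C; 10 uM MG-132 defined full response.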

[1] = measured here: control luc red channel unless noted
[2] = measured here: IkB-luc green channel
[3] = measured here: control luc red channel

Cc1ccc(-c2nc(Nc3ccccc3)n[nH]2)cc1
AC50 [1]: 3.16 µM [falling, partial curve]

CCc1ccc2oc(-c3cc(N)ccc3Cl)nc2c1
AC50 [1]: 3.98 µM [falling, partial curve]

COc1ccccc1-c1cn[nH]c(=S)n1
AC50 [1]: 12.6 µM [falling, partial curve]

CC(=O)Nc1ccc(S(=O)(=O)N2CCSC2c2ccc(Cl)cc2)cc1 (centres undefined)
AC50 [1]: 12.6 µM [falling, partial curve]

Cc1csc2nc(COc3ccc(NC(=O)COc4ccc(F)cc4)cc3)cc(=O)n12
AC50 [1]: 0.0794 µM [rising, full curve]

Cc1ccc(NC(=O)Cn2cc(S(=O)(=O)N3CCN(c4ccccc4F)CC3)c3ccccc3c2=O)cc1F
AC50 [1]: 5.01 µM [falling, partial curve]

CCOc1ccc(/C=C/c2nc(C#N)c(N(C)C)o2)cc1
AC50 [1]: 1.58 µM [rising, full curve, poor fit]

Cn1c(C(=O)N2CCC(C(=O)N3CCN(Cc4ccc5c(c4)OCO5)CC3)CC2)cc2sccc21
AC50 [1]: 12.6 µM [falling, partial curve]

CCOc1ccccc1CNC(=O)c1nn(C)c2c1CS(=O)(=O)c1ccccc1-2
AC50 [1]: 10 µM [falling, partial curve]

CC(C)c1ccc(CNc2nc(-c3ccco3)nn2S(=O)(=O)c2ccccc2)cc1
AC50 [1]: 10 µM [falling, partial curve]

COc1ccc([N+](=O)[O-])c2c1CCN2C(=O)CC[C@H](N)C(=O)O
AC50 [1]: 7.94 µM [rising, partial curve]

COc1ccc(CCNc2nnc(Sc3nnnn3-c3ccccc3)s2)cc1OC
AC50 [1]: 12.6 µM [falling, partial curve]

N#C/C(=C\c1ccc(O)c(O)c1)C(=O)Nc1ccccc1
AC50 [1]: 31.6 µM [falling, partial curve]

Cc1cccc(Cc2c(C)nc3c(C(=O)NCc4ccco4)cnn3c2C)c1
AC50 [1]: 15.8 µM [falling, partial curve]

Cc1ccc(-c2nnc(SCC(=O)NCCC(C)C)nc2-c2ccc(C)cc2)cc1
AC50 [1]: 39.8 µM [falling, single point]

Cc1cc(NC(=O)C2CCCN(S(=O)(=O)c3ccc(Br)s3)C2)ccc1Br (centres undefined)
AC50 [1]: 10 µM [falling, partial curve]

Cc1cc2nn(-c3ccc(F)cc3)nc2cc1NC(=O)c1cc(Cl)ccc1Cl
AC50 [1]: 20 µM [rising, partial curve, poor fit]

O=C(Nc1ccc2c(c1)nc1n2CCOC1)c1ccccc1
AC50 [1]: 2.51 µM [falling, full curve]

O=C(c1ccc(COc2ccccc2Br)o1)N1CCCCCC1
AC50 [1]: 15.8 µM [falling, partial curve]

O=C1NC(=O)C(c2ccccc2[N+](=O)[O-])=C1Nc1ccc(O)c(Cl)c1
AC50 [2]: 20 µM [falling, partial curve]
AC50 [3]: 39.8 µM [falling, single point]

COc1ccc(-n2ncc(C(=O)Nc3ccc(C)cc3Cl)c2C2CCN(C(=O)OC(C)(C)C)CC2)cc1
AC50 [1]: 31.6 µM [falling, partial curve]

Cn1c(=O)n(C)c2cc(NS(=O)(=O)c3ccc4c(c3)CCCC4)ccc21
AC50 [1]: 10 µM [rising, partial curve] [measured here: IkB-luc green channel]

O=S(=O)(NCCc1csc(-c2ccc(F)cc2)n1)c1ccc(F)cc1F
AC50 [1]: 1.26 µM [falling, full curve, poor fit]

Cc1oc(-c2ccccc2)nc1C(=O)OCC(=O)NC(=O)NCC(C)C
AC50 [1]: 10 µM [falling, partial curve]

O=C(Nc1ccc(F)cc1)c1ccc(-n2cnnc2)cc1
AC50 [1]: 0.126 µM [rising, full curve]

C=CCNC(=O)NC(=O)COC(=O)CCCSc1nc2ccccc2[nH]1
AC50 [1]: 5.01 µM [falling, partial curve]

Cc1ccc(-c2noc(CN(C(=O)CCCN3C(=O)c4ccccc4C3=O)C(C)C)n2)cc1
AC50 [1]: 12.6 µM [falling, partial curve]

COC(=O)c1ccc(NC(=O)CSc2ccc(-c3cccs3)nn2)cc1
AC50 [1]: 0.158 µM [falling, single point]

NS(=O)(=O)c1ccc(CCNc2ncnc3sccc23)cc1
AC50 [1]: 12.6 µM [falling, partial curve]

O=C(NCCc1nc2ccccc2n1CCOc1ccc(Cl)cc1)C1CCCCC1
AC50 [1]: 25.1 µM [falling, partial curve]

COc1ccccc1NC(=O)CN1CCN(CC(=O)Nc2ccc(OCc3ccccc3)cc2)CC1
AC50 [1]: 2.51 µM [falling, partial curve]

O=C(Nc1ccc(NC(=O)c2ccco2)nc1)c1cccnc1
AC50 [1]: 15.8 µM [falling, partial curve]

CCc1ccc(NC(=O)C(Cc2ccccc2)NS(=O)(=O)c2ccc3c(c2)CCN3C(C)=O)cc1 (centres undefined)
AC50 [1]: 15.8 µM [falling, partial curve]

C#CCOc1ccc(C2C(C(=O)OC)=C(C)NC3=C2C(=O)c2ccccc23)cc1OCC (centres undefined)
AC50 [1]: 15.8 µM [falling, single point]

CCOc1ccc(Sc2cc(C(=O)NCCCOC)c3ccccc3n2)cc1
AC50 [1]: 12.6 µM [falling, partial curve]

Clc1ccc(CCNc2ncnc3nc[nH]c23)cc1
AC50 [1]: 10 µM [falling, partial curve]

CCOc1ccc(NC(=O)CSc2nnc(CC)c(CC)n2)cc1
AC50 [1]: 20 µM [falling, partial curve, poor fit]

Cc1ccc2c(c1)-c1c(cnn1CC(=O)Nc1ccccc1N1CCN(C)CC1)CO2
AC50 [1]: 31.6 µM [falling, single point]

Cc1cccc(C)c1NC(=O)C1CCCN(S(=O)(=O)c2c(C)noc2/C=C/N(C)C)C1 (centres undefined)
AC50 [1]: 25.1 µM [falling, single point]

COc1ccccc1CNC(=O)c1ccc(NC(=O)N2CC(C)Sc3ccccc32)cc1 (centres undefined)
AC50 [1]: 12.6 µM [falling, partial curve]

COc1ccc(S(=O)(=O)NCC(c2ccco2)S(=O)(=O)c2ccc(C)cc2)cc1C (centres undefined)
AC50 [1]: 15.8 µM [falling, partial curve, poor fit]

Cc1nn2c(c1-c1ccccc1)N=C(c1ccco1)CC2c1ccccc1 (centres undefined)
AC50 [1]: 6.31 µM [falling, partial curve]

O=C(Nc1ccc2nc(SCC(=O)N3CCCc4ccccc43)sc2c1)c1cccc(F)c1
AC50 [1]: 3.16 µM [falling, full curve]

COc1cccc(CNC(=O)c2ccc(CSc3nc4ccncc4n3Cc3cccc(C)c3)cc2)c1
AC50 [1]: 12.6 µM [falling, partial curve]

COc1cc(NC(=O)CCc2c(C)nn(-c3ccc4nncn4n3)c2C)cc(OC)c1OC
AC50 [1]: 0.158 µM [rising, full curve]

Cc1ccc(Cl)cc1N1CCN(S(=O)(=O)c2ccc3[nH]c4c(c3c2)CCCCC4)CC1
AC50 [1]: 10 µM [falling, partial curve]

Cc1cccc(CSc2ncc(CO)n2Cc2ccc(F)cc2)c1
AC50 [1]: 1.26 µM [falling, partial curve]

O=C(NC1CCCCCC1)c1ccc(N2CCCC2=O)cc1
AC50 [1]: 7.94 µM [falling, partial curve]

COCCn1c(SCC(=O)Nc2ncc(C)s2)nc2sc3c(c2c1=O)CCC3
AC50 [1]: 20 µM [falling, partial curve]

COc1cccc(N2CCN(S(=O)(=O)c3cc(Br)cc4c3N(C(=O)C3CC3)CC4)CC2)c1
AC50 [1]: 0.00631 µM [falling, full curve, poor fit]

Cc1cccc(N2C(=O)CSC23C(=O)N(Cc2cccc(F)c2)c2ccccc23)c1 (centres undefined)
AC50 [1]: 20 µM [falling, partial curve]

CN1CCN(C(CNC(=O)C(=O)Nc2ccccc2)c2ccc3c(c2)OCO3)CC1 (centres undefined)
AC50 [1]: 0.316 µM [falling, full curve]

O=C(CSc1n[nH]c(=O)n1C1CC1)Nc1cc(Cl)ccc1Oc1ccccc1
AC50 [2]: 20 µM [falling, partial curve]
AC50 [3]: 20 µM [falling, partial curve]

Cc1cccc(-c2noc(CN(C(=O)COc3ccc(C(C)C)cc3)C(C)C)n2)c1
AC50 [1]: 10 µM [falling, partial curve]

CCOC(=O)c1c(C)n(-c2ccccc2)c2ccc(OC(=O)c3ccccc3)cc12
AC50 [1]: 1.58 µM [rising, full curve]

Cc1c(CC(=O)NCCc2ccccc2F)c(=O)oc2c(C)c3occ(C(C)(C)C)c3cc12
AC50 [1]: 10 µM [falling, partial curve]

COc1cccc(N2CCN(C(=O)c3ccc4c(=O)n(CCc5ccccc5)c(=O)[nH]c4c3)CC2)c1
AC50 [1]: 0.398 µM [falling, full curve]

CCOc1ccc(OCC)c(NC(=O)CN2CCN(c3cccc(C)c3)C(C)C2)c1 (centres undefined)
AC50 [1]: 20 µM [falling, partial curve]

CCc1ccc(S(=O)(=O)c2nnn3c2nc(N2CCC(C)CC2)c2cc(Cl)ccc23)cc1
AC50 [1]: 12.6 µM [falling, partial curve]

COc1ccc(-c2cc(C(=O)NCc3cc(OC)c(OC)c(OC)c3)[nH]n2)cc1
AC50 [1]: 39.8 µM [falling, single point]

Cc1cccc(OCC(=O)Nc2c(C)ccc3nsnc23)c1C
AC50 [1]: 20 µM [rising, partial curve, poor fit]

Cc1ccc(Cl)c2c1N[C@@H](c1ccc(C(=O)O)cc1)[C@H]1CC=C[C@@H]21
AC50 [1]: 31.6 µM [falling, partial curve]
